Test results taken from PubChem BioAssay AID624291 (National Center for Advancing Translational Sciences (NCATS), 2012).
The campaign covered roughly 350,000 compounds. About 220 (0.063%) were called active. This list was built around the results that the source calls inconclusive (neither active nor inactive); the mix of calls is not that of the screen. The call rests on the fitted dose curve; in most records, active means well fitted activation curve with a large enough effect; inconclusive means small, poorly fitted or top-dose-only effect; inactive means no such curve, though single readings can be large or run the other way. A potency beside an inconclusive call is a rough fit, not a confirmed value.

Experiment: qHTS for Activators of Integrin-Mediated Alleviation for Muscular Dystrophy; further: nearly all actives have a fitted effect of over 60% in size;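 on activation: 100% = response of the positive control SU9516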
Conditions: alpha7betagal myoblasts, beta-gal FDG fluorescence, 48 h; activation: at 38.3 µM (top of the series)
Procedure, shortened: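 Alpha7betagal+/- myoblasts (passage 13) were plated 16-24 hr, then exposed to compounds (1:260 dilution of DMSO stock) for 48 hours at 37C. After MPER lysis, β-galactosidase reporter activity was read as FDG fluorescence (ex 480/em 540) after 30 minutes.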
Potency means the concentration at half of the fitted maximal effect.

Q: For `Cc1ccc(C(C#N)c2ccc3c(C(F)(F)F)cc(C(F)(F)F)nc3n2)cc1` (configuration not stated), which Potency is on record?
A: Its Potency is “inactive”.

Q: For `COc1cccc(CNn2c(-c3cccc(C)c3)nc3ccccc3c2=O)c1`, which Potency is on record?
A: The Potency was inconclusive: 1.12 µM [activator, full curve, poor fit].

Q: For `O=C(NCCO)c1cc(-c2cc(C(=O)NCCO)c3ccccc3n2)nc2ccccc12`, which Potency is on record?
A: Its Potency is inconclusive: 28.2 µM [activator, single point].

Q: Which Potency does the source give for `CC(C)(C)OC(=O)N1CCC(c2c(C(=O)NCC3CCN(C4CCCC4)C3)cnn2-c2ccc(F)cc2)CC1` (configuration not stated) here?
A: Its Potency is inconclusive: 2 µM [activator, single point].

Q: Which Potency does the source give for `COC(=O)c1cc2c(ccc3ccccc32)oc1=O` here?
A: The Potency was inconclusive: 2.82 µM [activator, single point].

Q: With `FC(F)(F)c1cnc(NNC(=S)Nc2cccnc2)c(Cl)c1` as the compound, how does the Potency read?
A: The Potency was “inactive”.

Q: Which Potency does the source give for `CCC(C(=O)NCc1cccc(C)c1)n1nc(C)c2c(C)n(-c3ccccc3)nc2c1=O` (configuration not stated) here?
A: Its Potency is inconclusive: 3.16 µM [activator, single point].

Q: With `CCOc1cc(C(=O)Oc2cc(C)[nH]c(=O)c2[N+](=O)[O-])cc(OCC)c1OCC` as the compound, how does the Potency read?
A: The Potency was inconclusive: 3.16 µM [activator, single point].

Q: Which Potency does the source give for `O=C(Nc1cccc(F)c1)c1ccc2ncsc2c1` here?
A: The Potency was inconclusive: 22.4 µM [activator, single point].

Q: With `Cc1ccccc1NC(=O)c1onc2c1CCCC2` as the compound, how does the Potency read?
A: Its Potency is “inactive”.

Q: Which activation does the source give for `OCC1OC(n2ccc3c(NO)ncnc32)C(O)C1O` (configuration not stated) here?
A: The activation was inconclusive: -53% [activator].

Q: Which Potency does the source give for `C=CCC1Cc2c(Br)cccc2C(CC=C)N1` (configuration not stated) here?
A: The Potency was inconclusive: 2 µM [activator, full curve, poor fit].

Q: With `CC1(C)CCc2cc(-c3ccnc(=S)[nH]3)ccc2O1` as the compound, how does the Potency read?
A: Its Potency is inconclusive: 5.01 µM [activator, full curve, poor fit].

Q: For `O=C(NCc1cccs1)c1csc2c1CCCCC2`, which Potency is on record?
A: Its Potency is “inactive”.

Q: For `O=C(COC(=O)c1ccc[n+]([O-])c1)Nc1ccccc1OC(F)F`, which Potency is on record?
A: Its Potency is inconclusive: 28.2 µM [activator, single point].

Q: For `O=S(=O)(c1ccccc1)N1CCC(O)(CSc2ccccc2)CC1`, which Potency is on record?
A: Its Potency is inconclusive: 12.6 µM [activator, single point].

Q: Which Potency does the source give for `Cc1ccc(C2(c3ccccc3)NC(=O)N(CC(=O)NCc3ccco3)C2=O)cc1C` (configuration not stated) here?
A: Its Potency is inconclusive: 5.01 µM [activator, single point].

Q: Which Potency does the source give for `Cc1ccc(OCC(O)CN2CCOCC2)c(C)c1` (configuration not stated) here?
A: Its Potency is inconclusive: 22.4 µM [activator, single point].

Q: For `Cn1nnnc1SCC(=O)Nc1ccc2c(c1)OCO2`, which Potency is on record?
A: The Potency was inconclusive: 5.01 µM [activator, single point].

Q: With `Cc1cc(C)n2nc(C(=O)OCC(=O)NCc3ccc(F)cc3)nc2n1` as the compound, how does the Potency read?
A: Its Potency is inconclusive: 3.55 µM [activator, full curve, poor fit].

Q: Which activation does the source give for `CCc1c(C(=O)NNC(=S)NCC(C)C)csc1C` here?
A: Its activation is inactive: -7.13% [at 7.66 µM].

Q: Which Potency does the source give for `O=C(Cn1c(=O)oc2ccccc21)NCCc1ccccc1Cl` here?
A: The Potency was inconclusive: 12.6 µM [activator, single point].

Q: With `CC(=O)c1ccc(N2CCN(S(=O)(=O)c3c(C)[nH]c(C)c3C(=O)N3CCCCC3)CC2)cc1` as the compound, how does the Potency read?
A: Its Potency is inconclusive: 28.2 µM [activator, single point].

Q: With `Cc1cnc(C(=O)OCC(=O)NC2CCCCCC2)cn1` as the compound, how does the Potency read?
A: The Potency was inconclusive: 28.2 µM [activator, single point].

Q: For `COc1ccnc(Oc2ccc(F)cc2)c1C(=O)N/C=N/OCc1cccc(F)c1`, which Potency is on record?
A: The Potency was inconclusive: 31.6 µM [activator, single point].

Q: For `Cc1nc2sc(C(c3ccco3)N3CCN(c4ccc(F)cc4)CC3)c(O)n2n1` (configuration not stated), which Potency is on record?
A: The Potency was “inactive”.

Q: Which Potency does the source give for `CCn1c(SCC(=O)c2c[nH]c3ccccc23)nnc1-c1cccs1` here?
A: The Potency was “inactive”.

Q: With `COCCn1c(=O)[nH]c2cc(C(=O)Nc3ccc(OC)c(Cl)c3)ccc2c1=O` as the compound, how does the Potency read?
A: Its Potency is inconclusive: 5.01 µM [activator, single point].

Q: With `O=C(Nc1ccc2cn[nH]c2c1)c1c(Cl)cccc1Cl` as the compound, how does the Potency read?
A: The Potency was inconclusive: 2.82 µM [activator, single point].

Q: For `O=C(CNC(=O)c1ccc(N2C(=O)c3ccccc3C2=O)cc1)OCC(=O)c1ccccc1`, which Potency is on record?
A: Its Potency is inconclusive: 2.51 µM [activator, single point].

Q: For `COC(=O)c1cc(C#N)c(N2CC(C)OC(C)C2)nc1C` (configuration not stated), which Potency is on record?
A: Its Potency is “inactive”.

Q: With `Clc1ccc(-c2n[nH]c3c2CCC3)c(Cl)c1` as the compound, how does the Potency read?
A: The Potency was inconclusive: 4.47 µM [activator, partial curve, poor fit].

Q: With `Cc1[nH]n(C(N)=S)c(=O)c1N=Nc1ccc([N+](=O)[O-])cc1Cl` as the compound, how does the Potency read?
A: The Potency was inconclusive: 5.01 µM [activator, single point].

Q: For `O=S(=O)(NCCc1csc(-c2ccccc2)n1)c1cccnc1`, which Potency is on record?
A: Its Potency is inconclusive: 11.2 µM [activator, single point].

Q: For `C(=N\Nc1nccc(-c2cccnc2)n1)/c1ccccc1`, which Potency is on record?
A: Its Potency is “inactive”.

Q: Which Potency does the source give for `Cn1cc(C(=O)N2CCN(c3ccccc3)CC2)c(=O)c2cc(S(=O)(=O)N3CCCC3)ccc21` here?
A: Its Potency is inconclusive: 5.62 µM [activator, partial curve, poor fit].

Q: For `CCOC(=O)C1=C(COC(=O)Cc2c(F)cccc2Cl)NC(=O)NC1C` (configuration not stated), which Potency is on record?
A: The Potency was inconclusive: 5.01 µM [activator, single point].

Q: For `C=C1[C@@H](O)[C@H](Cc2ccccc2)N(Cc2ccccc2Br)S1(=O)=O`, which Potency is on record?
A: The Potency was “inactive”.

Q: Which Potency does the source give for `O=C(NCc1ccc(Cl)cc1)C1CCC(CNc2c(N3CCOCC3)c(=O)c2=O)CC1` (configuration not stated) here?
A: The Potency was inconclusive: 0.501 µM [activator, full curve, poor fit].

Q: With `O=C(c1ccc2c3c(cccc13)CC2)C1CCCN(Cc2cccnc2)C1` (configuration not stated) as the compound, how does the Potency read?
A: Its Potency is “inactive”.

Q: With `O=C1CCC(=O)N1CN(Cc1ccco1)CN1C(=O)CCC1=O` as the compound, how does the Potency read?
A: The Potency was inconclusive: 28.2 µM [activator, single point].

Q: With `Cc1cccc(Cc2c(C)nc3c(C(=O)N4CCN(Cc5ccc6c(c5)OCO6)CC4)cnn3c2C)c1` as the compound, how does the Potency read?
A: Its Potency is inconclusive: 7.08 µM [activator, partial curve, poor fit].

Q: With `C=CCn1c(CCC(=O)O)ccc1-c1ccc(OC)cc1` as the compound, how does the Potency read?
A: The Potency was “inactive”.

Q: With `O=C1CSC(=Nc2ccc(O)cc2)N1` as the compound, how does the Potency read?
A: The Potency was inconclusive: 5.01 µM [activator, single point].

Q: With `CCn1cc(/C=C(\NC(=O)c2ccc(OC)cc2)C(=O)N2CCN(C)CC2)c2ccccc21` as the compound, how does the Potency read?
A: Its Potency is inconclusive: 3.98 µM [activator, single point].

Q: Which Potency does the source give for `CC(=O)N1c2ccc(S(=O)(=O)N(C)CC(=O)Nc3ccccc3C)cc2CC1C` (configuration not stated) here?
A: Its Potency is inconclusive: 28.2 µM [activator, single point].

Q: With `Cc1cccc(S(=O)(=O)c2c(N)n(-c3ccccc3)c3nc4ccccc4nc23)c1` as the compound, how does the Potency read?
A: The Potency was inconclusive: 11.2 µM [activator, single point].

Q: Which Potency does the source give for `NNC(=O)c1cc2cc(Oc3ccccc3)ccc2[nH]1` here?
A: Its Potency is “inactive”.

Q: Which Potency does the source give for `Cc1ccc(C(=O)NCC(=O)OCC(=O)Nc2ccccc2[N+](=O)[O-])cc1` here?
A: The Potency was inconclusive: 3.98 µM [activator, single point].

Q: For `O=C(O)CN(CCc1ccccc1)S(=O)(=O)c1ccccc1`, which Potency is on record?
A: Its Potency is inconclusive: 2.24 µM [activator, single point].

Q: Which Potency does the source give for `COc1ccc(Nc2nc(C)cc(C)n2)cc1Cl` here?
A: Its Potency is inconclusive: 3.98 µM [activator, single point].

Q: For `CCS(=O)(=O)c1ccc(C(=O)NC2CC2)c(Cl)c1Cl`, which Potency is on record?
A: Its Potency is inconclusive: 3.16 µM [activator, partial curve, poor fit].

Q: Which Potency does the source give for `CCOC(=O)c1c(C)oc2cc(Sc3ccccc3)c(O)c(O)c12` here?
A: Its Potency is inconclusive: 3.16 µM [activator, single point].

Q: Which Potency does the source give for `CCC(=O)Nc1nnc(S(=O)(=O)N(CC(C)C)c2ccccc2)s1` here?
A: Its Potency is inconclusive: 28.2 µM [activator, partial curve, poor fit].

Q: Which Potency does the source give for `Cc1ccc(N(CC(=O)Nc2ccccc2C(=O)NCc2ccco2)S(=O)(=O)c2ccccc2)cc1C` here?
A: Its Potency is “inactive”.

Q: For `S=C(Nc1ccccc1)Nc1ccccc1-n1cccc1`, which Potency is on record?
A: The Potency was inconclusive: 0.501 µM [activator, full curve, poor fit].

Q: With `CCOC(=O)C1(Cc2ccc(OC)cc2)CCN(C(=O)c2ccc3[nH]ccc3c2)CC1` as the compound, how does the Potency read?
A: The Potency was inconclusive: 5.01 µM [activator, single point].

Q: For `CC(=O)Nc1nnc(-c2c(-c3ccccc3Cl)noc2C)o1`, which Potency is on record?
A: Its Potency is “inactive”.

Q: For `Cc1oc(C(=O)O)cc1COc1ccc2c3c(c(=O)oc2c1C)CCC3`, which Potency is on record?
A: The Potency was inconclusive: 28.2 µM [activator, single point].

Q: For `O=C(Cc1ccccc1)Nc1nc(-c2ccc(F)c(F)c2)cs1`, which Potency is on record?
A: The Potency was “inactive”.

Q: For `O=c1[nH]c(N/N=C/c2cc3c(cc2[N+](=O)[O-])OCO3)nc2ccccc12`, which Potency is on record?
A: Its Potency is inconclusive: 1.58 µM [activator, partial curve, poor fit].

Q: Which Potency does the source give for `O=C1N/C(=C\c2ccsc2)C(=O)N1Cc1ccc(F)cc1` here?
A: The Potency was inconclusive: 28.2 µM [activator, single point].

Q: With `O=C(CSc1ccc(Cl)cc1)Nc1ccc(N2CCN(c3ccccc3)CC2)c(F)c1` as the compound, how does the Potency read?
A: Its Potency is “inactive”.

Q: With `O=C(NCc1ccc2c(c1)OCO2)c1ccc(CS(=O)Cc2cccc(Cl)c2)o1` (configuration not stated) as the compound, how does the Potency read?
A: The Potency was inconclusive: 0.501 µM [activator, partial curve, poor fit].

Q: For `COc1ccc(OC)c(/C=C/C(=O)OCC(=O)NC2CCCCCCC2)c1`, which Potency is on record?
A: The Potency was inconclusive: 8.91 µM [activator, partial curve, poor fit].

Q: Which Potency does the source give for `CCC(=O)N(C1=C(NC(C)C)C(=O)c2ccccc2C1=O)C(C)C` here?
A: Its Potency is inconclusive: 3.55 µM [activator, partial curve, poor fit].

Q: With `Fc1ccccc1Cc1nnc2n1N=C(c1ccc(Cl)cc1)CS2` as the compound, how does the Potency read?
A: Its Potency is “inactive”.
